Results as given in PubChem BioAssay AID651803 (National Center for Advancing Translational Sciences (NCATS), 2012).
Screen size: about 1,200 compounds; fewer than 10 were called active. The call rests on the fitted dose curve; in most records, active means well fitted curve in the direction sought with a large enough effect; inconclusive means small, poorly fitted or top-dose-only effect, or another doubt; inactive means no such curve, though single readings can be large or run the other way. The list shows a part of the results.

Protein sequences, listed by entry. Tags and fused reporters are not part of them. Lines headed by an entry give the natural chain unless they say otherwise; changes in a name come on top.
UniProt P11308: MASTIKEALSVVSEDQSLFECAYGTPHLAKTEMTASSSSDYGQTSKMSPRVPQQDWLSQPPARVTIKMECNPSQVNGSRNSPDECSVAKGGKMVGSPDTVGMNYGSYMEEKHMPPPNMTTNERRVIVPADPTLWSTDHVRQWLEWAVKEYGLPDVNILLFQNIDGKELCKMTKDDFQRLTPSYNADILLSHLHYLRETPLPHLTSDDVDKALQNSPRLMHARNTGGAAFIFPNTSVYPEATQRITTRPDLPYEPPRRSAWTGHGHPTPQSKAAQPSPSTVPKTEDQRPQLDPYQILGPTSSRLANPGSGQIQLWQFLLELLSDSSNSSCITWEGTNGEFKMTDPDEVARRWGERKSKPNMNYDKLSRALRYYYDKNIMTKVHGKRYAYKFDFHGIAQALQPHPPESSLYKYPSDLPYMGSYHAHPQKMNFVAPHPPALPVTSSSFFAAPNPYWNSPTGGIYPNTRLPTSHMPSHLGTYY

These compounds were tested against Transcriptional regulator ERG (Homo sapiens) (UniProt P11308) (assay: qHTS for Small Molecule Inhibitors of the ERG Ets/DNA interaction: TR assay against cherry picks). Conditions: ERG Ets domain-DNA fluorescence polarization, Texas red probe; at 154 µM (top of the series).
Outline: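 Polarization read sequentially for fluorescein (ex 480/em 535 nm) and Texas red (ex 555/em 632 nm) probes, 5 nM and 100 nM solutions, displaced from His-ERG Ets domain (1 uM solution), pH 7.5 Tris/KCl/EDTA/DTT buffer.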
Further: % of control where 0% means no effect.

Activity change, negative = inhibition, inactive:
COc1ccc(-c2cccc(NS(=O)(=O)c3cc([N+](=O)[O-])ccc3C)c2)nn1 -11.7%, Cc1cccn2c(CNCCc3ccccn3)c(C(=O)N3CCOCC3)nc12 14.4%, COC(=O)c1ccc(/C=C2\Oc3ccccc3NC2=O)cc1 -11.4%, NCCNc1ccc2nnnn2n1 6.05%, O=C(NCC(=O)N(c1ccccc1)C(C(=O)NC1CCCCC1)c1cccnc1)c1ccco1 (stereo not drawn) 1.05%, CCOc1ccc(S(=O)(=O)N2CC(=O)Nc3ccccc32)cc1 5.42%, O=C(CN1C(=O)c2ccccc2S1(=O)=O)NCCSCc1c(F)cccc1Cl -12%, COc1cccc(C(=O)OCC(=O)Nc2cc(C)on2)c1OC 4.8%, Cc1ccc([N+](=O)[O-])cc1NC(=O)c1ccccc1 -9.35%, COc1ccc(/C=C2\SC(=S)N(CC(=O)NCCO)C2=O)cc1 4.28%, O=S(=O)(Nc1nc2ccccc2nc1NCc1ccco1)c1cccs1 -16.7%, CCOC(=O)CC1C(=O)NCCN1C(=O)c1c(F)cccc1F (stereo not drawn) -13.3%, COc1cc(NCCCNC(C)C)c2nccc(C)c2c1 1.99%, NC12CC3CC(CC(C3)C1)C2 -12.3%, O=C(NCCN1CCCC1)c1ccc2c(c1)N(Cc1cccc(Cl)c1)C(=O)c1ccccc1S2(=O)=O -4.4%, COc1cccc(N=C2CC(C)(C)CC(=O)/C2=C(/O)c2ccccc2)c1 -11%, Cc1nn(-c2ccc(Cl)cc2)c2[nH]c(CCl)cc(=O)c12 12.5%, CC(C)CCN1CCN(C2CCN(c3ccc4c(c3)OCO4)CC2)CC1CCO (stereo not drawn) -8.13%, COc1ccc(C(=O)NCC(=O)N/N=C/c2cccnc2)cc1 -0.223%, O=C(CNC(=S)N(CCCN1CCOCC1)Cc1cccs1)NC1CCCCC1 2%, O=C(NC1CCCCCC1)c1ccc(-n2cnnc2)cc1 9.32%, COc1ccc(-c2noc(Cn3c(=O)c4ccccc4n(CC(=O)Nc4cccc(C(F)(F)F)c4)c3=O)n2)cc1 12.9%, CC1CCCCC1NC(=O)/C(C#N)=C/c1ccc(OCC(N)=O)cc1 (stereo not drawn) -12.7%, C=CCn1c(=O)[nH]c2cc(C(=O)N3CC=C(c4ccccc4)CC3)ccc2c1=O 0.0273%, Cc1cccn2c(=O)cc(COc3ccc(NC(=O)C(C)C)cc3)nc12 -1.94%, Oc1ccc(Nc2ccc3ccccc3c2)cc1 -16%, Nc1ccc2nc(SCC(=O)N3CCOCC3)sc2c1 0.349%, COc1ccccc1NS(=O)(=O)c1ccc(C)c(NC(=O)c2c(C)noc2C)c1 4.15%, Cc1cc(OCc2nnc(SC(C)C(=O)O)n2-c2ccccc2)ccc1Cl (stereo not drawn) 3.34%, COC(=O)c1c(C(=O)OC)c(-c2ccc(C(C)(C)C)cc2)n2c1CS(=O)C2 (stereo not drawn) 4.8%, COc1ccc(OCC(=O)OCc2cc(=O)n3nc(-c4cccs4)sc3n2)cc1 9.8%, Cc1ccc2c(C)c(C(=O)N(C)C(C)c3ccon3)oc2c1C (stereo not drawn) -1.25%, Cc1ccc(NC(=O)COC(=O)/C=C/c2c(C)nn(-c3ccc(F)cc3)c2Cl)cc1F -1.54%, CCN(CC)C(=O)Cn1cc(C(=O)C(=O)NCCCN2CCOCC2)c2ccccc21 2.97%, CN(C)C(CNC(=O)Cc1ccc([N+](=O)[O-])cc1)c1ccccc1 (stereo not drawn) -18.3%, COc1ccc(C(=O)N[C@H](C(=O)N2CCN(c3ccccc3F)CC2)C(C)C)cc1 2.79%, Cc1cccc(C)c1-n1cccc1/C=C1/C(=N)N2C(=NC1=O)SN=C2S(C)(=O)=O -2.47%, O=C(/C=C/c1ccc([N+](=O)[O-])cc1)NCc1ccco1 2.4%, COc1ccc(-c2nc3c(c4nnc(SC(C)C(=O)Nc5ccc(C)cc5)n24)COC(C)(C)C3)cc1 (stereo not drawn) 5.43%, O=C(Nc1ncc([N+](=O)[O-])s1)c1cccs1 -16.8%, COc1ccc(C(=O)NCc2ccc(OCCN(C)C)cc2)cc1OC -1.94%, Cc1ccc2nc3c(c(N)c2c1)CCN3C -19.9%, COc1ccc(NC(C)c2ccccc2)cc1 (stereo not drawn) 6.03%, CS(=O)(=O)N(Cc1ccccc1)c1ccc(C(=O)Nc2ccc(Cl)cc2)cc1 0.576%, CCCCn1c(N)c(N(CC(C)C)C(=O)c2ccc(S(=O)(=O)N(CC)c3ccccc3)cc2)c(=O)[nH]c1=O 2.48%, COc1cc(C2Nc3ccccc3NC3=C2C(=O)CC(c2ccc(OC)c(OC)c2)C3)ccc1O (stereo not drawn) -9.45%, CCOC(=O)N1CCC(NC(=O)CSCc2nc(-c3ccc(OCC)cc3)oc2C)CC1 -9.6%, COc1ccc(C(=O)c2c[nH]c(C(=O)N=CN(C)C)c2)cc1 0.29%, O=C(NCc1ccc2c(c1)OCO2)NC1CCCCC1 19.9%, CCCCN(CC)C(=O)CSc1nc2n[nH]c(C)c2c(=N)n1-c1cccc(C)c1 -3.72%, COc1ccc(OCC(=O)NNC(=O)C2CCN(c3ncnc4sc(C)c(C)c34)CC2)cc1 0.13%, Oc1ccccc1/C=N/n1c(COc2ccccc2)n[nH]c1=S -17.3%, Cc1ccc(S(=O)(=O)N2CCCCC2)cc1NC(=O)C1CC(=O)N(c2ccc3c(c2)OCCO3)C1 (stereo not drawn) 6.08%, CCOc1cc(C2c3c(oc4ccccc4c3=O)C(=O)N2Cc2ccc(OC)cc2)ccc1O (stereo not drawn) -8.68%, O=[N+]([O-])c1cnc(N2CCCCC2)c([N+](=O)[O-])c1 11.5%, COc1ccc(C(C)(C)C)cc1NC(=O)C1=CC=CN2CCS(=O)(=O)N=C12 1.14%, O=C(Nc1ccc(N2CCN(C(=O)c3cccs3)CC2)cc1)c1ccccc1Cl -10%, COc1cc(NCCCC(C)N)c2ncccc2c1 (stereo not drawn) 58.2%
